Experimental data reported in paper PMC12049546.
These are yes or no findings as the source states them, for the method shown. For some of these results: In cells and extracts the contact can be indirect. Some entries that bind do so weakly or less than the wild type.

Protein sequences, listed by entry. Tags and fused reporters are not part of them. Residues count along the entry.
UniProt Q9D7S9: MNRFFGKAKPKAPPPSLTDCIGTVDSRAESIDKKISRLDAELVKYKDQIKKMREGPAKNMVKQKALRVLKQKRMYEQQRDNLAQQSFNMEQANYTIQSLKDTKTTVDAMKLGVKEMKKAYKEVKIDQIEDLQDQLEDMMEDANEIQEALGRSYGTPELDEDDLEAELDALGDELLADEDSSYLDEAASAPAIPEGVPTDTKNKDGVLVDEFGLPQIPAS
UniProt Q09472: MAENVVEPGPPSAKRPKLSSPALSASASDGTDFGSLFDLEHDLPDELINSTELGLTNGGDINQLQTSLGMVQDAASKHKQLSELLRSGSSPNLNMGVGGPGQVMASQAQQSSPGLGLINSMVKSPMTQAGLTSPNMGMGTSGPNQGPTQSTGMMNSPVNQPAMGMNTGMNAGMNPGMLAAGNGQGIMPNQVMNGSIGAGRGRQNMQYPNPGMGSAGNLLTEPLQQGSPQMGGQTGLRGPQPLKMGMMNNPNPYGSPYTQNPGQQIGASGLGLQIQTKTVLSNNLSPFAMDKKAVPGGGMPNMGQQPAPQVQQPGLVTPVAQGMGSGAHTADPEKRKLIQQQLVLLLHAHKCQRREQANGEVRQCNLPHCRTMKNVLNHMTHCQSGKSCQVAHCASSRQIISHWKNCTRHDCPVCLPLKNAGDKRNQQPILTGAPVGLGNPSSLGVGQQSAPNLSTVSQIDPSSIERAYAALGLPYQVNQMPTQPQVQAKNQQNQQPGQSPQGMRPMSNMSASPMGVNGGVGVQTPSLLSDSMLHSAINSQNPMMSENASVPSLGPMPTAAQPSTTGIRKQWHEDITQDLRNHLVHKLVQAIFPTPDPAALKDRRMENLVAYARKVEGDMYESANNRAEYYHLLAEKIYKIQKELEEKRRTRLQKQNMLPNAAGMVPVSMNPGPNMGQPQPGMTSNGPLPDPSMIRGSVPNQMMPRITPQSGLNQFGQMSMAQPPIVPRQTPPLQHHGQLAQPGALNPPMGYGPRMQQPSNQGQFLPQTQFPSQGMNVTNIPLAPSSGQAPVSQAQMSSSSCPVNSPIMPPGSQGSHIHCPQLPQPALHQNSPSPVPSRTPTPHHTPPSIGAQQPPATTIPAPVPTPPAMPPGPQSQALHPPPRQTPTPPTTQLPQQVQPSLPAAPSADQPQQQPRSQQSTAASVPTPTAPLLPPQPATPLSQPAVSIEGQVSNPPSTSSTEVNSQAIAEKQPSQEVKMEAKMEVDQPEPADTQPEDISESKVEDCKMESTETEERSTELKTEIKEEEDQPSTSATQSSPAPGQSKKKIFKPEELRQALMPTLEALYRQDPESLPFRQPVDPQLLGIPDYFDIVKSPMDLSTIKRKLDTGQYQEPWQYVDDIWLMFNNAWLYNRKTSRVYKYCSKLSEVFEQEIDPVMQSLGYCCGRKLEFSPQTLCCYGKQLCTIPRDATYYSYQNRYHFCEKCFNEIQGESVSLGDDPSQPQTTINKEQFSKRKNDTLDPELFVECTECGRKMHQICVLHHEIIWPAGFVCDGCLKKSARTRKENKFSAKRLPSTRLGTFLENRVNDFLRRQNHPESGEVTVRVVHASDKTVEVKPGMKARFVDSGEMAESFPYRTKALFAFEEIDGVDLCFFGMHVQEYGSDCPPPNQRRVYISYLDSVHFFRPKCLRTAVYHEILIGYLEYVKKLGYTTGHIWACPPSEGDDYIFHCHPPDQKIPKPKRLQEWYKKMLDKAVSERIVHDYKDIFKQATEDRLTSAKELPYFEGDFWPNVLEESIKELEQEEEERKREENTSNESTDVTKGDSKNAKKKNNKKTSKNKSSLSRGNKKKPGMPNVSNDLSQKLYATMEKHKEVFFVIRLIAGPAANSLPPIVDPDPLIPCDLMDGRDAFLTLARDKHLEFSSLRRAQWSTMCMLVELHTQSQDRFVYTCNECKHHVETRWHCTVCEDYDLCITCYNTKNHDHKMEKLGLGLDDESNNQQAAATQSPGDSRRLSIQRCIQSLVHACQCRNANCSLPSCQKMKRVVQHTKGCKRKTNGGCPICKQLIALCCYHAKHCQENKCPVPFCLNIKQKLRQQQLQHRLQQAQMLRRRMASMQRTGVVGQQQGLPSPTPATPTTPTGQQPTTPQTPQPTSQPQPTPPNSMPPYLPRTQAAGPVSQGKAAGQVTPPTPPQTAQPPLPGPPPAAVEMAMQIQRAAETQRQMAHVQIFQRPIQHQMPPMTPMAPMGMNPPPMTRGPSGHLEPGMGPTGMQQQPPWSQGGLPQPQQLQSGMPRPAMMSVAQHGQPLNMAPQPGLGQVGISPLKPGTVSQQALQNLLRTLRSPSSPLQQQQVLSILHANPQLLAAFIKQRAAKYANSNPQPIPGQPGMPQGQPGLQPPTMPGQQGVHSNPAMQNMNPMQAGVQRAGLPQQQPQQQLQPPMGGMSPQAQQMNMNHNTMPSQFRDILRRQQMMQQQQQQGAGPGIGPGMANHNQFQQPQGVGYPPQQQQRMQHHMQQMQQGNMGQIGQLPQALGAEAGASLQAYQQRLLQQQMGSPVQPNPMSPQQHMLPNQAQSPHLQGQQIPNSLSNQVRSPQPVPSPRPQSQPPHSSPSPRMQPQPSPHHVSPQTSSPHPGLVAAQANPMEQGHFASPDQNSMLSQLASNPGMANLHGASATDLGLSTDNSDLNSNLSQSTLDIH
UniProt P46531, residues 1754-2555: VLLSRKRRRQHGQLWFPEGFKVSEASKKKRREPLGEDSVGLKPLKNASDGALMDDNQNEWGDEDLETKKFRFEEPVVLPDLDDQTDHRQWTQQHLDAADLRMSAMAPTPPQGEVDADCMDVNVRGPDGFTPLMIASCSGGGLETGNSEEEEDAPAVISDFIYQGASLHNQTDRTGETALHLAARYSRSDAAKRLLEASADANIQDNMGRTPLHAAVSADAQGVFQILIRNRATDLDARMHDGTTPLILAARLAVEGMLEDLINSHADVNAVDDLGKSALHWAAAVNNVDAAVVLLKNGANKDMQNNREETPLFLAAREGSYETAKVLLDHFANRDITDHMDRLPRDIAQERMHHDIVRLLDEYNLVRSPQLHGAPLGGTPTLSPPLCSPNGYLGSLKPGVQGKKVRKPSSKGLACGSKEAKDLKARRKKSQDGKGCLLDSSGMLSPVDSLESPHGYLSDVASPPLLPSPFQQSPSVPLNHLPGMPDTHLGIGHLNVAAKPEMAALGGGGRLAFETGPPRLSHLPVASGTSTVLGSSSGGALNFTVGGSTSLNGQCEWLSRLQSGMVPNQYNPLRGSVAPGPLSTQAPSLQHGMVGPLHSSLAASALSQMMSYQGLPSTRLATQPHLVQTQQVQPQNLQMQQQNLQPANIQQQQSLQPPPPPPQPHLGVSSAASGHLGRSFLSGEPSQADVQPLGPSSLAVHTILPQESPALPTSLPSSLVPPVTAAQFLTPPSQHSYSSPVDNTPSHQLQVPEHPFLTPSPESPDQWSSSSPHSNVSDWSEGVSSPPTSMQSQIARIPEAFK
UniProt P01106: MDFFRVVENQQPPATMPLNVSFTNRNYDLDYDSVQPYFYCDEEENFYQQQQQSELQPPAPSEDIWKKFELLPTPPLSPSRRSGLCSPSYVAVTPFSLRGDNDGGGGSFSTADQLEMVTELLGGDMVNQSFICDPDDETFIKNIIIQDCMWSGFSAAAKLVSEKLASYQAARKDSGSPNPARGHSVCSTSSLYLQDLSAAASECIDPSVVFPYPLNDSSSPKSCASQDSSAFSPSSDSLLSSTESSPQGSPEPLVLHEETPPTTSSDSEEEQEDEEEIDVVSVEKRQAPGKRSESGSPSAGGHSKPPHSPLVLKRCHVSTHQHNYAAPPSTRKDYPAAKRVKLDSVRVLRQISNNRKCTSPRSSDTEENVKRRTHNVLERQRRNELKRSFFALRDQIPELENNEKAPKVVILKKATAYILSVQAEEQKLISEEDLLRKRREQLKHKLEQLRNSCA
UniProt Q9NZZ3: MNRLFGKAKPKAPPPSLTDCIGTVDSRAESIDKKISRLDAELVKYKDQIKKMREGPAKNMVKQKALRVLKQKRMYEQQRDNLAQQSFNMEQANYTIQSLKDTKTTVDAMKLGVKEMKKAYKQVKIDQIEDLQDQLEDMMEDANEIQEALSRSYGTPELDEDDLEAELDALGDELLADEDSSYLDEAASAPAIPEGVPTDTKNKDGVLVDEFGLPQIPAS

Assays:
[1] = target: hemagglutinin (HA)-tagged CHMP5 (mouse) (UniProt Q9D7S9); assay: co-IP; anti-HA immunoprecipitation (isotype IgG as control) from fractionated/nuclear lysates of CUTLL1 cells transduced with HA-tagged CHMP5; Protein G Dynabeads, antibody overnight at 4 °C; western blot
recombinant p300-FLAG = recombinant p300-FLAG (UniProt Q09472); assay: co-IP; cell-free: recombinant proteins, 0.5 μg each, mixed 1:1 in TBS (50 mM Tris-HCl, 150 mM NaCl) with protease inhibitors, overnight at 4 °C; anti-FLAG antibody 4 h, Protein G Dynabeads 2 h; washed with TBS + 0.2% NP-40; both purified

binding [1]	binding (recombinant p300-FLAG)	Substance
no binding		intracellular NOTCH1 domain (ICN1) (from UniProt P46531 1754-2555) (domain or fragment)
no binding		MYC (from UniProt P01106 1-454)
	binds	recombinant CHMP5-His (from UniProt Q9NZZ3 1-219)
binds		p300 (endogenous, CUTLL1) (from UniProt Q09472 1-2414) (enzyme)
